Test results reported in paper PMC9513230, “Inhibition of Plasmodium falciparum Hsp70-Hop partnership by 2-phenylthynesulfonamide” (Frontiers in Molecular Biosciences, 2022).
No constants are given. Whether binding was seen depends on the method and setting.

Sequences of proteins named here, by UniProt entry; tags and fusion partners are left off. Residues count along the entry.
UniProt P02769, residues 25-607: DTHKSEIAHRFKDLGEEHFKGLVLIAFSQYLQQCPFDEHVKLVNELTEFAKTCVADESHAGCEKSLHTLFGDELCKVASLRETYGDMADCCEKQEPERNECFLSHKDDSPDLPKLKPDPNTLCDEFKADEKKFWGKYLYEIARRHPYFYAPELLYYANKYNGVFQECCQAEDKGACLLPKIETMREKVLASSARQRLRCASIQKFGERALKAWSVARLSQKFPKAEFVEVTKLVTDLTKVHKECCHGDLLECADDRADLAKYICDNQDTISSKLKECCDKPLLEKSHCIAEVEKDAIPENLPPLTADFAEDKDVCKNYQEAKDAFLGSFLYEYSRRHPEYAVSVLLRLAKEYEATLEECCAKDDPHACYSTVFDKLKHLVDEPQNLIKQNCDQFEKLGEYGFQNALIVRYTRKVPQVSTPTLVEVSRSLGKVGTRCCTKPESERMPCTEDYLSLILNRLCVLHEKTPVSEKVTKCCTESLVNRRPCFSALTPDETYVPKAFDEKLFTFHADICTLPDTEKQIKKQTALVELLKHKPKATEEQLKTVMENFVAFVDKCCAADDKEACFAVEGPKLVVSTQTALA
UniProt Q8IB24: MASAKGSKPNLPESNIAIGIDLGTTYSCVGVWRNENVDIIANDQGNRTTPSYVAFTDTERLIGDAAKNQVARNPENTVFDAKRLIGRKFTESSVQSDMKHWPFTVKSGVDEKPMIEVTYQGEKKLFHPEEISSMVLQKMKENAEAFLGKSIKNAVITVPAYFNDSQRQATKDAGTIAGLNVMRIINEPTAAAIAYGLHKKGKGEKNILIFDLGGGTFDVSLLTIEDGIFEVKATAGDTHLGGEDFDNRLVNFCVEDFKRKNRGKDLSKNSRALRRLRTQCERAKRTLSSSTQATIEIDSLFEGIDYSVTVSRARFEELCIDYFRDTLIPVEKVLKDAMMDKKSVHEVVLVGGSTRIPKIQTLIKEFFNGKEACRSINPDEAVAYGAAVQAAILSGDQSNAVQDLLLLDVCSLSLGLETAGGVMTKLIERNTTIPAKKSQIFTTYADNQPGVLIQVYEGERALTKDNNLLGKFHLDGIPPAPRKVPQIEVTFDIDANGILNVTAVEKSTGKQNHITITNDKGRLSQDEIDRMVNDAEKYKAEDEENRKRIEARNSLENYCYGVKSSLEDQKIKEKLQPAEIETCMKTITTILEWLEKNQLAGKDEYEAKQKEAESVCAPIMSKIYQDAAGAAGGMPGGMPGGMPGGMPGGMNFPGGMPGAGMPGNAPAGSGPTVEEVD

Target: BSA (UniProt P02769)
Experiment: ELISA; both purified

## Plasmodium falciparum Hsp70-1 (from UniProt Q8IB24 1-677)
  binding: no binding
